The source of these data is the supplement of paper PMC12819154, “High-throughput peptide-centric local stability assay extends protein–ligand identification to membrane proteins, tissues and bacteria” (Nature Structural & Molecular Biology, 2025).

Chains of the proteins cited; added tags and fusions are not shown. Lines headed by an entry give the natural chain unless they say otherwise; changes in a name come on top.
UniProt Q8IWA0: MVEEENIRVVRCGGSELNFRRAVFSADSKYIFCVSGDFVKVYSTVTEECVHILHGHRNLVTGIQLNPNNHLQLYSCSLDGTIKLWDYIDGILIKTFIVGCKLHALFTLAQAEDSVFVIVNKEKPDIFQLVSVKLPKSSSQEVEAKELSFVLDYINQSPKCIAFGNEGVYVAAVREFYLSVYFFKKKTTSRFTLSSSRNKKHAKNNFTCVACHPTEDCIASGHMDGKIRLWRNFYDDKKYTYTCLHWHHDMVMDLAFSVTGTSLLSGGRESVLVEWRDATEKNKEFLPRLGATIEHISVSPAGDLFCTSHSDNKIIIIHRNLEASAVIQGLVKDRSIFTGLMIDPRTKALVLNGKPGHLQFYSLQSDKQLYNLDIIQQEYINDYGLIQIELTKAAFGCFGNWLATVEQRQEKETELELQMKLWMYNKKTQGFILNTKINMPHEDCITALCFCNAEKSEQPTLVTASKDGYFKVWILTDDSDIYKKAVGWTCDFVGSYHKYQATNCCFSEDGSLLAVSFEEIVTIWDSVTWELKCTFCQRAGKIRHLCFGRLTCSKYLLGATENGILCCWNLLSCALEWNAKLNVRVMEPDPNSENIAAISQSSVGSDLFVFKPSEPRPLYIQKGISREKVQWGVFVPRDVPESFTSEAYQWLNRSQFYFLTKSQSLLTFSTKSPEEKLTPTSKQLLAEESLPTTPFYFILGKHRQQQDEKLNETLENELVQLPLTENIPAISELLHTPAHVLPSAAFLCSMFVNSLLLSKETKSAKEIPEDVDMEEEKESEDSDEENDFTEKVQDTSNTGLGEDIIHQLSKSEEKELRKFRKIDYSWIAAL
UniProt Q8IZQ8: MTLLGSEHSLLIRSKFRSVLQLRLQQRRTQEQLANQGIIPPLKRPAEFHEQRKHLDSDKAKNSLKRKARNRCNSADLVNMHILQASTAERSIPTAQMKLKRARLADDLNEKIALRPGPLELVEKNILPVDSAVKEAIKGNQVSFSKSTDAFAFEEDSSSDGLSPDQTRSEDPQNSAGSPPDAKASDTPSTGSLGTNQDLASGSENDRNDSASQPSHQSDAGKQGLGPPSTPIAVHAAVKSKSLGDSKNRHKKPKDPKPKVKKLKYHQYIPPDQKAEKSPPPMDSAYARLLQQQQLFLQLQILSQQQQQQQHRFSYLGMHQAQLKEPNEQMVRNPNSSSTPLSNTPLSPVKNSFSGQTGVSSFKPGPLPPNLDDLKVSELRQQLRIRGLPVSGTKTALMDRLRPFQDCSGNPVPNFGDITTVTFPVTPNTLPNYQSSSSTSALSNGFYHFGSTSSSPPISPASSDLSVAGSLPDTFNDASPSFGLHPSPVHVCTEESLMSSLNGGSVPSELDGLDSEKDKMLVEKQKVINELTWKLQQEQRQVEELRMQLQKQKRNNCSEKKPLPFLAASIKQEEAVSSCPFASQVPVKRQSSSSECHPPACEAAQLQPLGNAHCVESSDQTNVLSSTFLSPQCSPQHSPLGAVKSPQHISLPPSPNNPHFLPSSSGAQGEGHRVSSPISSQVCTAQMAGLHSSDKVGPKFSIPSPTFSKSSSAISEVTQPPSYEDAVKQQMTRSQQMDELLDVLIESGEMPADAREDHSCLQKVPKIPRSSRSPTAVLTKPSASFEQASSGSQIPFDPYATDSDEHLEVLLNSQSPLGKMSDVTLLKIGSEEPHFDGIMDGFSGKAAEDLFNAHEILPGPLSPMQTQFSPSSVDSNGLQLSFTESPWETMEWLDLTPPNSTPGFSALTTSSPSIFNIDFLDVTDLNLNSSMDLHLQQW
UniProt Q8IZ21: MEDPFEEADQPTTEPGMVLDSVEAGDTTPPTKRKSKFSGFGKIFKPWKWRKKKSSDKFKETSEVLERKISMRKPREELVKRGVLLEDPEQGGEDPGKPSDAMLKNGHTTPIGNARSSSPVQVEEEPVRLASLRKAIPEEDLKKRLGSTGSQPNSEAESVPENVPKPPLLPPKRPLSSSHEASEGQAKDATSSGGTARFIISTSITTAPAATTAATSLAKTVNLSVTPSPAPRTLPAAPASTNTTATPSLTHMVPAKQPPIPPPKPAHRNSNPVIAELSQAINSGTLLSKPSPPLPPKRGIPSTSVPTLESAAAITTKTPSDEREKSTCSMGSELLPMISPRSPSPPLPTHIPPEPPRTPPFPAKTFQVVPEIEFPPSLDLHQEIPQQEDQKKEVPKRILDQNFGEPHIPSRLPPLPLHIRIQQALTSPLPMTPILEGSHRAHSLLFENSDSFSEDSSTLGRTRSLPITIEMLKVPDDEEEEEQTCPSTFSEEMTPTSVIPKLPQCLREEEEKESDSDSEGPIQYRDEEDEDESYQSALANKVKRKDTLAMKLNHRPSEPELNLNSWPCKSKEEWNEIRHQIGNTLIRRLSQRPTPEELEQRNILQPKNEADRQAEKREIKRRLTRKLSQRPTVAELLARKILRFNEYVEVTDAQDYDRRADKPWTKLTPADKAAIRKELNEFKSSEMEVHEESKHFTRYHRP
UniProt Q8IUI8: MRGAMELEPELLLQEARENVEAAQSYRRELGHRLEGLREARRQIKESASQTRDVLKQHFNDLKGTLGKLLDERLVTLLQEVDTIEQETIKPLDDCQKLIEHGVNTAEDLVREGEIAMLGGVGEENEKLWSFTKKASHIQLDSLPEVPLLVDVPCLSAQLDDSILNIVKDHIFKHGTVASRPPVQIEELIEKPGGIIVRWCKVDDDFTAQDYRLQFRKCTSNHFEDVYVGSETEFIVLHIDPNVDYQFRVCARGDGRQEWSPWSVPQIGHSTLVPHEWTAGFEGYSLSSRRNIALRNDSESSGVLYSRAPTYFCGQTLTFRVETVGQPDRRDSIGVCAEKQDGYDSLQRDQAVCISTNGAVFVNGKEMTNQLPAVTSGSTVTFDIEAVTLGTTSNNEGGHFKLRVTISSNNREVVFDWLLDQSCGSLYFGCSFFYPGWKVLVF
UniProt Q86V87: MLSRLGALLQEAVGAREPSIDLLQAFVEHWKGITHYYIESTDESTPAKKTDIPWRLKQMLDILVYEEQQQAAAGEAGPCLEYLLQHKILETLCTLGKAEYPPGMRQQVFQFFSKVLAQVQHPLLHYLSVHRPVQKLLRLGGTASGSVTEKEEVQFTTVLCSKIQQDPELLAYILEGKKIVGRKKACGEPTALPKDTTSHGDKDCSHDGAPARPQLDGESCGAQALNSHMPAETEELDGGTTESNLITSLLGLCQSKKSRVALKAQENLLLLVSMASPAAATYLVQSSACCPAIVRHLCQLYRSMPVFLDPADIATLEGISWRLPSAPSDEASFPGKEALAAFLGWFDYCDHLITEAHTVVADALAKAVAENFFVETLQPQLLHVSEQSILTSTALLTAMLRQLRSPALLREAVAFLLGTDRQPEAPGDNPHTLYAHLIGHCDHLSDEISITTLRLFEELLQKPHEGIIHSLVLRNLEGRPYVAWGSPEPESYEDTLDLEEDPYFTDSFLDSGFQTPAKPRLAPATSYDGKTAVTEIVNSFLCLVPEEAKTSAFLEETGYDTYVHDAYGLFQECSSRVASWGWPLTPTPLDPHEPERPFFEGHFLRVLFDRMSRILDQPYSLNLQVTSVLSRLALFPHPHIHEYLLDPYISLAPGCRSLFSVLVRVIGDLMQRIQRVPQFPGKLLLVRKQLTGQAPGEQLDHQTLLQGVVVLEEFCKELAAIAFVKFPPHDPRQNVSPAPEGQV
UniProt Q8IWP9: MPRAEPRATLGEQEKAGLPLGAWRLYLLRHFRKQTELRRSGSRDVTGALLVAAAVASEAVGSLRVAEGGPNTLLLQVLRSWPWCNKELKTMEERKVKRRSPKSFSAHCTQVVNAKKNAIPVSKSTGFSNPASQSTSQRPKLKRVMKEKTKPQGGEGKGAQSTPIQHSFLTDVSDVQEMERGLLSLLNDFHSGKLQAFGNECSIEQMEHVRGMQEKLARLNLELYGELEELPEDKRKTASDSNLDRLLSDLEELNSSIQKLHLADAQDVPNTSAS
UniProt Q86XL3: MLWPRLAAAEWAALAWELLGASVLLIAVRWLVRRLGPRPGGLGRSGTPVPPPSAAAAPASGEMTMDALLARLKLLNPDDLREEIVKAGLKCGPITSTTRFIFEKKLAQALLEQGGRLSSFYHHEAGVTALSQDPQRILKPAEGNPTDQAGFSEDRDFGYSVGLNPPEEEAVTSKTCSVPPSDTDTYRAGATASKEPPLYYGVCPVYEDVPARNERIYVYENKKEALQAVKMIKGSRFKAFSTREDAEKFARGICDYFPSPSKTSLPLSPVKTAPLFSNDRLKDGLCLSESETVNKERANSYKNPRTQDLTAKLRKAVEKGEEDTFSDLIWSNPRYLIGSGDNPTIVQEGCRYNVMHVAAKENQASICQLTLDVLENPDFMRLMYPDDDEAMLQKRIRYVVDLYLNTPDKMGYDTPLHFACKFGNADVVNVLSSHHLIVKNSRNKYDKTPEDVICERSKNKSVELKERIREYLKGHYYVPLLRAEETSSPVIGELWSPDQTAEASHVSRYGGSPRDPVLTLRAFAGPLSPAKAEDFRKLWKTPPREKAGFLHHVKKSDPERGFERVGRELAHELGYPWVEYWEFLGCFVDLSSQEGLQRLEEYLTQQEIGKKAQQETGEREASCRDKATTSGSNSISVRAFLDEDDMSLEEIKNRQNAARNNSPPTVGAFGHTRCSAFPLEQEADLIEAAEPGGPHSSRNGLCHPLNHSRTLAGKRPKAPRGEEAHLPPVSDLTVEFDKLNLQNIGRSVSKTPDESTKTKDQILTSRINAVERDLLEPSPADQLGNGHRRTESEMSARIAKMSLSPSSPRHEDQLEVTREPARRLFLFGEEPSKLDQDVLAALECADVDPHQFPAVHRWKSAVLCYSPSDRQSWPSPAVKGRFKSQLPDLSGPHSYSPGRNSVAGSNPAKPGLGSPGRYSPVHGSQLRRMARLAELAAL
UniProt Q8IXV7: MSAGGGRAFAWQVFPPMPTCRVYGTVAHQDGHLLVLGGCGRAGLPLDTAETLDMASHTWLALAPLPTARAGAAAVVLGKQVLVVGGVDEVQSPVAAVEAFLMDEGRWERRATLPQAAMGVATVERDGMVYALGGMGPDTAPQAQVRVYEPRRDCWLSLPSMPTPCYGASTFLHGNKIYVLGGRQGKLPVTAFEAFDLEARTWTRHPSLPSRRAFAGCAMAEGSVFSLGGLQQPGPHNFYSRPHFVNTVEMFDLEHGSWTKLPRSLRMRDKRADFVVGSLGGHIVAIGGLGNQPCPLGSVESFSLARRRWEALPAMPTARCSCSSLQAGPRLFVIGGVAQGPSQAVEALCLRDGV

This is one part of the list. Most values lie at the level of the controls, where differences are scatter.

Compound in the experiment: Cc1nc(Nc2ncc(C(=O)Nc3c(C)cccc3Cl)s2)cc(N2CCN(CCO)CC2)n1 [dasatinib]
Briefly: log2 fold change of tryptic peptide abundance, ligand vs vehicle (limited proteolysis) (log2 ratio); higher = more trypsin-susceptible (destabilized). Conditions: ligand concentration: 5 uM; sample: K562 cleared lysate.
For “WDR75 (peptide sequence: VWILTDDSDIYKK, peptide start residue: 472) (UniProt Q8IWA0)”, the log2 fold change amounted to 1.01.

“UniProt Q8IZQ8 (peptide sequence: LADDLNEK, peptide start residue: 126)”: the log2 fold change amounted to 0.0554.

Consider “PHACTR4 (peptide sequence: ILDQNFGEPHIPSRLPPLPLHIR, peptide start residue: 398) (UniProt Q8IZ21)”, for which the log2 fold change stood at 0.547.

For “CRLF3 (peptide sequence: ENVEAAQSYRR, peptide start residue: 18) (UniProt Q8IUI8)”, the log2 fold change is 0.217.

For “FAM160B2 (peptide sequence: LGALLQEAVGAR, peptide start residue: 5) (UniProt Q86V87)”, the log2 fold change came out at 0.0971.

Take “CCDC28A (peptide sequence: TASDSNLDR, peptide start residue: 237) (UniProt Q8IWP9)”: the log2 fold change was -0.0887.

Turning to “ANKLE2 (peptide sequence: DLLEPSPADQLGNGHR, peptide start residue: 773) (UniProt Q86XL3)”, the log2 fold change is 0.303.

In the case of “KLHDC8B (peptide sequence: CSCSSLQAGPR, peptide start residue: 320) (UniProt Q8IXV7)”, the log2 fold change was -0.13.
